These are yes or no findings as the source states them, for the method shown. Some results given as binding are weak or reduced against the parent protein; the word gives no strength. Tags and fused reporters may be left off the sequences shown.

The source of these data is US20130243802A1.

In assay [1] the target is canine glycoprotein 96, endoplasmic reticulum isoform of HSP90 (canine) (UniProt P41148). In words: CHIEF gel, 1 µg of recombinant HSP against 15 µg of peptide.
For assay [2] the target is unchanged. Nature of the assay: CHIEF gel.

B1: MBP100-117_WT1 117-134 (peptide)
peptide: PSQGKGRGLSLSRFSWGAPSQASSGQARMFPNAPYL
As for B1, the binding entry in assay [1] and in assay [2] was “binds” in each case.
